Measured values: US20250340604A1, “BLOOD-BRAIN BARRIER TRANSLOCATING PEPTIDES AND RELATED MOLECULES AND METHODS OF USE THEREOF” (Enkefalos Biosciences, Inc., priority 2022, published 2025)
No constants are given. Whether binding was seen depends on the method and setting. Some results given as binding are weak or reduced against the parent protein; the word gives no strength.

The chains behind the UniProt entries cited, without tags or fusion partners. Residues count along the entry.
UniProt Q07954, residues 20-4419: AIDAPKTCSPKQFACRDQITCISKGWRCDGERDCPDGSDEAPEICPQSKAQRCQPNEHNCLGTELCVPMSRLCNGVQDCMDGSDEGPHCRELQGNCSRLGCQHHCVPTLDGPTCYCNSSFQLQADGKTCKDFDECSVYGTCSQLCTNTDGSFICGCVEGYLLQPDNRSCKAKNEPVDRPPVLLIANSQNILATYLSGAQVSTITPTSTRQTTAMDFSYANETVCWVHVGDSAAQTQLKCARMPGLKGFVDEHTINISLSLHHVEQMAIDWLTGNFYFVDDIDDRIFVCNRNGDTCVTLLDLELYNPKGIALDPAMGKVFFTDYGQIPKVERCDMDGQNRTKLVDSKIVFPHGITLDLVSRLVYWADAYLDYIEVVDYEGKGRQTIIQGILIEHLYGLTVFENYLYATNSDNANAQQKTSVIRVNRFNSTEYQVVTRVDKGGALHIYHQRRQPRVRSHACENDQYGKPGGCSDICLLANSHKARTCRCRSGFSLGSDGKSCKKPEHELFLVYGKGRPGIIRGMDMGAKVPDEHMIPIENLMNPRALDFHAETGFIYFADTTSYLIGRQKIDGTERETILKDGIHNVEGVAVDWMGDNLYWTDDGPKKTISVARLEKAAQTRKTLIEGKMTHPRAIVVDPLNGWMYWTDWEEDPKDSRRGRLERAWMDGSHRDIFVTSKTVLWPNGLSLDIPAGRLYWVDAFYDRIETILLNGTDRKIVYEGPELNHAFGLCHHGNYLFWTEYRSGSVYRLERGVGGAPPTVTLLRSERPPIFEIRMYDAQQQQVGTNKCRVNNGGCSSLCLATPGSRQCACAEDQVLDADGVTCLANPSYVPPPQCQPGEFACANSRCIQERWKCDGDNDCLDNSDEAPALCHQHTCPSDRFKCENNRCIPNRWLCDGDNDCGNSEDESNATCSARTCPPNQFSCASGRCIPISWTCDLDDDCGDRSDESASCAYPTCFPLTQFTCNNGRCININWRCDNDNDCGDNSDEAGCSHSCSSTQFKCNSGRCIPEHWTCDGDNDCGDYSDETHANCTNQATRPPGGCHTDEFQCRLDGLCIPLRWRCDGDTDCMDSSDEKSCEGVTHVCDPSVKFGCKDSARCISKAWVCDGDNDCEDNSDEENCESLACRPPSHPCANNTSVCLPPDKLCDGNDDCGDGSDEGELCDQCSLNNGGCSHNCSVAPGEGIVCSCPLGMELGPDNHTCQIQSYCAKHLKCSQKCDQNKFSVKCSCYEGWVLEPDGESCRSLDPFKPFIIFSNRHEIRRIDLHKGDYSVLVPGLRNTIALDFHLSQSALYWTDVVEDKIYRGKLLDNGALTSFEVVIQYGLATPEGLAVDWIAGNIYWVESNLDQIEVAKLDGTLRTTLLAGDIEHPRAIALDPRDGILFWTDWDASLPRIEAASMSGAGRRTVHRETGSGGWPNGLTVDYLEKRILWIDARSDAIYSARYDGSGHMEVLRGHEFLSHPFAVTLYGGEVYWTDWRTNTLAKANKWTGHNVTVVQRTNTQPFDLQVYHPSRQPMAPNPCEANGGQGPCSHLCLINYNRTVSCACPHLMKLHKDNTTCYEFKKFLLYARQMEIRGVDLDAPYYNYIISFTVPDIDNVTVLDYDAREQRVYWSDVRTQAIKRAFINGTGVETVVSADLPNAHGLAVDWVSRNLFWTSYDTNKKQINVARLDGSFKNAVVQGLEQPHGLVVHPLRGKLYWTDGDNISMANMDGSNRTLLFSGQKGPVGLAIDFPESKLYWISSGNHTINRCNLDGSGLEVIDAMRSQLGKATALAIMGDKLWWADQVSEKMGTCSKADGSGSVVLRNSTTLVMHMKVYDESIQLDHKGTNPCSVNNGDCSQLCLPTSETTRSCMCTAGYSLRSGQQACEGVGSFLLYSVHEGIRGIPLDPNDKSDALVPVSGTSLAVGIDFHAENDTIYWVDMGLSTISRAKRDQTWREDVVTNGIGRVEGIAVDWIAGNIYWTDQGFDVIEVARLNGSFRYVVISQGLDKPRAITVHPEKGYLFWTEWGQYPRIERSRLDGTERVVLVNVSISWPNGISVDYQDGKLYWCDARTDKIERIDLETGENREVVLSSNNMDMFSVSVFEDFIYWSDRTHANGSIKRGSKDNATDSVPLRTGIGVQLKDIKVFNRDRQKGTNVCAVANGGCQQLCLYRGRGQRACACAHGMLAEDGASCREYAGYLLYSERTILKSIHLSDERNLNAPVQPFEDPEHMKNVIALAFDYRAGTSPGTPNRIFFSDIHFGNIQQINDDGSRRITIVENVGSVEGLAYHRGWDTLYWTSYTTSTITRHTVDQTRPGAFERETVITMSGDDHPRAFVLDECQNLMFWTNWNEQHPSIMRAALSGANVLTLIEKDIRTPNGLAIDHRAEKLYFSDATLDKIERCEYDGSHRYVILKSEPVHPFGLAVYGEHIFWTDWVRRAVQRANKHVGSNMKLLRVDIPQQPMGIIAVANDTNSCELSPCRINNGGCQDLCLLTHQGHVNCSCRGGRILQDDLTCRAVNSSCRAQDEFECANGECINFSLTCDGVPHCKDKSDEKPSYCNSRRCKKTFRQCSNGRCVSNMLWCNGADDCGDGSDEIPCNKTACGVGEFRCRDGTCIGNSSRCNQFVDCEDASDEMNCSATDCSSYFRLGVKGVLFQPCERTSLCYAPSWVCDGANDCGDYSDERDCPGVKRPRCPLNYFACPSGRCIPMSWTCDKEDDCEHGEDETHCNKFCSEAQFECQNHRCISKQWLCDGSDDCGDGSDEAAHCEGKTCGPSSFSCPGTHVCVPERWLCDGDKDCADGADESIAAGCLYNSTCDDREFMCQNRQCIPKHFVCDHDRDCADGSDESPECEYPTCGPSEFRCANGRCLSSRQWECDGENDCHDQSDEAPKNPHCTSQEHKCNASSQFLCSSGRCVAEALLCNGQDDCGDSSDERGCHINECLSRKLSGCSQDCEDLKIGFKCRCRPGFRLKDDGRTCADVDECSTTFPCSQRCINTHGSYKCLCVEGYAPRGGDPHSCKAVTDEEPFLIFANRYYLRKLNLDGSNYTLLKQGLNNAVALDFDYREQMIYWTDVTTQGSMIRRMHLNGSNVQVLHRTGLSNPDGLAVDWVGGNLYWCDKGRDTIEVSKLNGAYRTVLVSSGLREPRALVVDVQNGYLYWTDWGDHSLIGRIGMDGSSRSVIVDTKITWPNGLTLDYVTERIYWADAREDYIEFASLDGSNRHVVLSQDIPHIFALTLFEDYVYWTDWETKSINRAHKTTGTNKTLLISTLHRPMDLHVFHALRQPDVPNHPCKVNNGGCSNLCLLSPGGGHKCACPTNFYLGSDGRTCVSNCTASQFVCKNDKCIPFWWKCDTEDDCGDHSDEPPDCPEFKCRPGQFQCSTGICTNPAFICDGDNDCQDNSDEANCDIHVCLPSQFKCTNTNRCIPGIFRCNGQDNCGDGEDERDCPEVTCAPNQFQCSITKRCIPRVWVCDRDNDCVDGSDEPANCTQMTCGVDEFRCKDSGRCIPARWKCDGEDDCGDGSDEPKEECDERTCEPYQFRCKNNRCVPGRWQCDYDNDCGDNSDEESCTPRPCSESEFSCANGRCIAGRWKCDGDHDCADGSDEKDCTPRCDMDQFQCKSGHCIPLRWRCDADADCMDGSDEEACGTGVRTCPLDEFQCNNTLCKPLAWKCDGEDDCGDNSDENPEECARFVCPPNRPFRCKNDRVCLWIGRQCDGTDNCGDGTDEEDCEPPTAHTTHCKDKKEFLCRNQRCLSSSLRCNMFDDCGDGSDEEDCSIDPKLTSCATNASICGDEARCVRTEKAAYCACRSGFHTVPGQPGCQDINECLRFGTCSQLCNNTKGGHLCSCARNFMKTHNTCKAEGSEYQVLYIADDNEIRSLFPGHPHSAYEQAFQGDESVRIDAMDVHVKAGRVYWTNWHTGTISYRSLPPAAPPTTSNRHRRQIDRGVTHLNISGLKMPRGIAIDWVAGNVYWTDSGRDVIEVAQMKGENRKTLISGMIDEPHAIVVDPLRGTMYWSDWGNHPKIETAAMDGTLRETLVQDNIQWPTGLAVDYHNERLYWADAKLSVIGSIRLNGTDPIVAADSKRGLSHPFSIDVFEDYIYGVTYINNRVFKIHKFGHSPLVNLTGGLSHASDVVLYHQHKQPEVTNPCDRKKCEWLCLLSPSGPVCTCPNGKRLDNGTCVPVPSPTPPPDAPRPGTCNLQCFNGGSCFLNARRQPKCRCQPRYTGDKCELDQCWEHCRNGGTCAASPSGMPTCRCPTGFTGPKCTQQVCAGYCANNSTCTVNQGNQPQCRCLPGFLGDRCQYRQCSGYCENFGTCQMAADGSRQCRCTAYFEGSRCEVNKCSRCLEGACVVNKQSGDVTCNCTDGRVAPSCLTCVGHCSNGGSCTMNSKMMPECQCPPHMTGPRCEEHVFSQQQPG

What follows are binders tested against human low-density lipoprotein receptor-related protein 1 (Hu LRP-1), recombinant extracellular domain (human) (UniProt Q07954) (assay: phage selection and phage ELISA on coated receptor ECD).

Row | binding | Binder
1 | binds | GGVCPWYKMWFYETHRCRRDSDCPGACICRGNGYCGSGSD (designed binder) [CYC38]
2 | binds | GGVCWYETKTKLYVGVVKCRRDSDCPGACICRGNGYCGSGSD (designed binder) [CYC34]
3 | binds | GGVCIEDRKHHRNLHQTVQCRRDSDCPGACICRGNGYCGSGSD (designed binder) [CYC33]
4 | binds | GGVCNPLKLKYWREWTYGGGCRRDSDCPGACICRGNGYCGSGSD (designed binder) [CYC31]
5 | binds | GGVCDQSPYKLKHYGWCRRDSDCPGACICRGNGYCGSGSD (designed binder) [CYC37]
6 | binds | GGVCTPWKSQPLFWFQCRRDSDCPGACICRGNGYCGSGSD (designed binder) [CYC39]
7 | binds | GGVCYTQNRYKWLYAQTLNCRRDSDCPGACICRGNGYCGSGSD (designed binder) [CYC32]
8 | binds | GGVCWHHEWITWWFWHCRRDSDCPGACICRGNGYCGSGSD (designed binder) [CYC36]
9 | binds | GGVCLALTKPYWQWAMCRRDSDCPGACICRGNGYCGSGSD (designed binder) [CYC35]
10 | binds | GGVCWLTLGIANKGIDVYDVKCRRDSDCPGACICRGNGYCGSGSD (designed binder) [CYC30]
